Results from article PMC11019958.
No constants are given. Whether binding was seen depends on the method and setting. Binding seen in cells or lysates may run through a third protein. Binding calls can cover weak binding; strength is not graded here.

Target: T1, PDIA6 (ERp5), expressed as bait (UniProt Q15084)
T1 sequence: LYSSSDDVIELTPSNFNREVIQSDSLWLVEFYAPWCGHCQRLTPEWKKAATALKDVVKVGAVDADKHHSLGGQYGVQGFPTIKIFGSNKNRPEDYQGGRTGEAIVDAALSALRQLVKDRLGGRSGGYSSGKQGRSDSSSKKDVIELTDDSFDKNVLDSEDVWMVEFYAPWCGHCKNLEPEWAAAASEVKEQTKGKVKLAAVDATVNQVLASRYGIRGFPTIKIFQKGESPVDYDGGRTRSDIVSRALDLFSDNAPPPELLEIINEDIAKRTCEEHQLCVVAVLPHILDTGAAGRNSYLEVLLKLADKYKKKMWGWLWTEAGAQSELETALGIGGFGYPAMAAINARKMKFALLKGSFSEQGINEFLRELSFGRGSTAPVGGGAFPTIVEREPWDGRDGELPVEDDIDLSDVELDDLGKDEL
Assay: co-IP; HEK293T co-transfected with His-tagged ORF3 and Myc-TXNDC5 (WT or AAA) or PDIs; lysates on Dynabeads Protein G pre-bound with anti-Myc mAb; Western blotting

With “human HEV-3 (Kernow-C1/p6) ORF3 protein only with His tag” the binding was “binds”.
